No constants are given. Whether binding was seen depends on the method and setting. Binding seen in cells or lysates may run through a third protein. Some entries that bind do so weakly or less than the wild type. Sequences can lack the tags named with a protein.
Target: T1, Dyn2^WT-eGFP (UniProt P50570)
T1 sequence: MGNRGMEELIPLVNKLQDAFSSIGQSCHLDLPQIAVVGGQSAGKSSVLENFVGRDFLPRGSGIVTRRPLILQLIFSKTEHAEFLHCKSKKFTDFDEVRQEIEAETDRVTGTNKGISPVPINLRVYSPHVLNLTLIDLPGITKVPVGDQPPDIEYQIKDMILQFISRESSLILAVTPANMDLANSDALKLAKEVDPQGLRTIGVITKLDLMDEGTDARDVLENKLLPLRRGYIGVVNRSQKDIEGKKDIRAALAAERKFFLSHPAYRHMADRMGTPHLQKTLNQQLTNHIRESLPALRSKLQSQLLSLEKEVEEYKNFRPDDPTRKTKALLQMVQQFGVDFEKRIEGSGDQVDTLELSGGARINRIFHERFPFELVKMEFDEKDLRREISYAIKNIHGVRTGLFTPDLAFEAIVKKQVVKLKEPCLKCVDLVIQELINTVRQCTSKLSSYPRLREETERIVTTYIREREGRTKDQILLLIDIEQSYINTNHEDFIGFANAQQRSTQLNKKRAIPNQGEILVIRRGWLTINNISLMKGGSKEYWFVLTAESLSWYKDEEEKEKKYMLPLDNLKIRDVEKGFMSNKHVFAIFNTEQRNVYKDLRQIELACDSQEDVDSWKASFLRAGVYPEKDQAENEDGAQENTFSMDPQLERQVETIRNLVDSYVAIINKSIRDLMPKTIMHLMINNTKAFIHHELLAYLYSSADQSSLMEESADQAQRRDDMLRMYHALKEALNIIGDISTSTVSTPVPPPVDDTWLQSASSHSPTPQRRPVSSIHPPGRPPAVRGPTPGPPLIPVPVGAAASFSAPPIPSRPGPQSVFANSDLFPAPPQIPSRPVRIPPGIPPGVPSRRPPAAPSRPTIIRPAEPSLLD
Test: co-IP; GFP-nAb agarose, 0.5 mg A549 post-nuclear fraction, 2 h at 4 °C; beads washed with buffer 3 (0.5% Triton X-100, 25 mM HEPES, 150 mM KCl, 1 mM MgCl2, 2 mM EGTA, pH 7.4); immunoblot

Sequences of proteins named here, by UniProt entry; tags and fusion partners are left off.
UniProt Q9Y5X1: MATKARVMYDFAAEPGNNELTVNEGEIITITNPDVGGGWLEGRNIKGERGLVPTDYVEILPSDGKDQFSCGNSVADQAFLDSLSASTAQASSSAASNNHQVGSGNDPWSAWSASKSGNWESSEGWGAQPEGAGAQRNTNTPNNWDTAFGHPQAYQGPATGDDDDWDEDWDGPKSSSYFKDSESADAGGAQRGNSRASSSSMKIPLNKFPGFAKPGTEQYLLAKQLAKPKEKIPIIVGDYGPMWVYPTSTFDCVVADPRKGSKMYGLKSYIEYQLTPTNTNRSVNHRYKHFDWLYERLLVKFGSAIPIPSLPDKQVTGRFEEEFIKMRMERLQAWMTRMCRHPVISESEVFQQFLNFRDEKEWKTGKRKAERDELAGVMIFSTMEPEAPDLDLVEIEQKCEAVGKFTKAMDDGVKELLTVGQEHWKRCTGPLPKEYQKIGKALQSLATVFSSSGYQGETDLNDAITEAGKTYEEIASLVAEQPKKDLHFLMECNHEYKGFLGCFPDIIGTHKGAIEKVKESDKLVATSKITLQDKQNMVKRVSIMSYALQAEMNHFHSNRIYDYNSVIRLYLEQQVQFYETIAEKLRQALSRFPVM

sorting nexin 9, endogenous in A549 cells (from UniProt Q9Y5X1 1-595)
binding: binds
